Results deposited as PubChem BioAssay AID1259308 (NCATS, 2017)

Aim: 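Candidate targets for better recombinant protein yield in mammalian cells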 (primary screen)
Cells: human HEK293 embryonic kidney cells stably expressing firefly luciferase (HEK-CMV-Luc2-Hygro)
Knock-down reagent: single siRNA against human genes, 0.8 pmol siRNA per well
Time to read-out: 72 h
Measured: 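Luciferase light (ONE-Glo) measured on one replicate plate set and viability (CellTiter-Glo) on the other, scaled to a negative control siRNA, with robust z-scores and luciferase per cell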
Reading the numbers: total luciferase, z-score and total luciferase, % of control: higher = more reporter protein produced; luciferase per cell, z-score: higher = more reporter output per viable cell; viable cells, % of control: higher = more viable cells
Rule for the call: 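An siRNA counts as active if its total luciferase robust z-score exceeds 3; genes with two or more such siRNAs out of three were retested with fresh siRNAs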
Meaning of the calls: active = raised luciferase; inactive = no rise
Shown is one part, drawn at random, of about 59,000 deposited reagents. About 1,510 of all reagents (2.6%) count as active. 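Calls use total luciferase alone and ignore viability, so some active siRNAs may act by altering cell number.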 A number with no mark means an inactive call.

target gene | PubChem SID | total luciferase, z-score | total luciferase, % of control | luciferase per cell, z-score | viable cells, % of control
PARVG (GeneID 64098) | SID160747450 | 2.32 | 128 | 1.46 | 97.2
PARVG (GeneID 64098) | SID160747451 | 0.655 | 94.9 | 1.05 | 80.4
PARVG (GeneID 64098) | SID160747452 | 1.04 | 103 | 0.471 | 101
PSME4 (GeneID 23198) | SID160735694 | -1.09 | 60.1 | -1.26 | 93.5
PSME4 (GeneID 23198) | SID160735695 | 1.52 | 112 | 1.27 | 89.7
PSME4 (GeneID 23198) | SID160735696 | -0.838 | 65.2 | -0.891 | 92.1
CHCHD1 (GeneID 118487) | SID160755643 | -2.85 | 25.3 | -1.81 | 45.5
CHCHD1 (GeneID 118487) | SID160755644 | 0.0524 | 82.9 | -0.374 | 102
CHCHD1 (GeneID 118487) | SID160755646 | -1.58 | 50.4 | -1.63 | 86.3
MS4A7 (GeneID 58475) | SID160746803 | -1.11 | 59.8 | -1.28 | 93.6
MS4A7 (GeneID 58475) | SID160746804 | 2.11 | 124 | 1.64 | 89.8
MS4A7 (GeneID 58475) | SID160746805 | 0.845 | 98.7 | 0.29 | 102
CHRAC1 (GeneID 54108) | SID160741580 | 1.03 | 102 | 0.659 | 96.1
CHRAC1 (GeneID 54108) | SID160741581 | -2.26 | 36.9 | -3.16 | 94.6
CHRAC1 (GeneID 54108) | SID160741583 | 2.47 | 131 | 2.47 | 76.4
GUSBP1 (GeneID 728411) | SID160759341 | 0.865 | 99.1 | 0.274 | 103
GUSBP1 (GeneID 728411) | SID160759342 | 0.858 | 98.9 | 1.49 | 74.7
GUSBP1 (GeneID 728411) | SID160759343 | 0.359 | 89 | -0.0358 | 100
SNX9 (GeneID 51429) | SID160740794 | 7.42 (active) | 229 | 4.51 | 78.1
SNX9 (GeneID 51429) | SID160740795 | -0.195 | 78 | -0.105 | 89.6
SNX9 (GeneID 51429) | SID160740796 | 1.27 | 107 | 0.537 | 104
GPT2 (GeneID 84706) | SID160752634 | 1.17 | 105 | 0.797 | 95.3
GPT2 (GeneID 84706) | SID160752635 | 1.12 | 104 | 1.02 | 89
GPT2 (GeneID 84706) | SID160752636 | -0.52 | 71.5 | -0.858 | 100
EFHD1 (GeneID 80303) | SID160750330 | 0.123 | 84.3 | 1.16 | 69.4
EFHD1 (GeneID 80303) | SID160750331 | -0.302 | 75.9 | 0.43 | 75.7
EFHD1 (GeneID 80303) | SID160750333 | 0.357 | 89 | 0.618 | 84.5
SLC75A1 (GeneID 10227) | SID160727313 | 3 (active) | 142 | 2.79 | 76
SLC75A1 (GeneID 10227) | SID160727321 | -0.231 | 77.3 | -0.154 | 89.9
SLC75A1 (GeneID 10227) | SID160727325 | 1.18 | 105 | 0.564 | 101
CLECL1 (GeneID 160365) | SID160759769 | 0.00813 | 82 | -0.484 | 104
CLECL1 (GeneID 160365) | SID160759770 | -0.18 | 78.3 | -0.552 | 101
CLECL1 (GeneID 160365) | SID160759771 | -0.782 | 66.3 | -0.501 | 84.6
IL11 (GeneID 3589) | SID160775761 | 1.38 | 109 | 0.794 | 99.1
IL11 (GeneID 3589) | SID160775762 | 0.808 | 98 | 1.47 | 74.3
IL11 (GeneID 3589) | SID160775763 | -0.116 | 79.6 | -0.258 | 95.2
NUP210 (GeneID 23225) | SID160735766 | -0.921 | 63.6 | 1.21 | 51.7
NUP210 (GeneID 23225) | SID160735767 | 0.0532 | 82.9 | -0.0837 | 94.8
NUP210 (GeneID 23225) | SID160735768 | -0.189 | 78.1 | 0.268 | 81.4

A few values from the list:
Result for IL11 (GeneID 3589) [SID160775763] under “viable cells, % of control”: 95.2
Under “total luciferase, % of control”, PARVG (GeneID 64098) [SID160747451] reads 94.9
Result for MS4A7 (GeneID 58475) [SID160746803] under “total luciferase, z-score”: -1.11
Value for PARVG (GeneID 64098) [SID160747452] under “viable cells, % of control”: 101
For “total luciferase, % of control”, GUSBP1 (GeneID 728411) [SID160759343] shows 89
Under “viable cells, % of control”, GPT2 (GeneID 84706) [SID160752634] reads 95.3
